In the supplement of paper PMC10373366:
Where a name gives a salt, the structure may show the parent alone. Some of the results follow. Many values rest on one well or one pass, so single values are uncertain.

Experiments:
A2780 = experiment: cell growth inhibition ratio vs untreated control (CCK8); higher = stronger inhibition of cell viability; conditions: 10 µM; 48 h
Procedure: (§1)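 Natural product library (Topscience) screened at 10 µM final concentration for 48 h on ovarian cancer A2780 cells and patient-derived ovarian cancer cells (PDC) in 96-well plates; viability read by CCK8 and reported as inhibition ratio (%) relative to untreated control. Single-dose primary screen.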

[1] = tested on: patient-derived ovarian cancer cells (PDC); experiment: as above; conditions: 10 µM; 48 h
Procedure: as §1

SMILES | cell growth inhibition ratio (A2780) | cell growth inhibition ratio [1]
C[C@H](CCC(=O)O)[C@H]1CC[C@H]2[C@@H]3CC[C@@H]4C[C@H](O)CC[C@]4(C)[C@H]3C[C@H](O)[C@]12C [Deoxycholic acid] | 4.15% | -2.09%
COc1ccc(-c2oc3c(CC=C(C)C)c(O[C@@H]4O[C@H](CO)[C@@H](O)[C@H](O)[C@H]4O)cc(O)c3c(=O)c2O[C@@H]2O[C@@H](C)[C@H](O)[C@@H](O)[C@H]2O[C@@H]2O[C@@H](C)[C@H](O)[C@@H](O)[C@H]2O)cc1 [Epimedin C] | 40.1% | 16%
COc1c2ccoc2cc2oc(=O)ccc12 [Bergapten] | 11.6% | -13.8%
CN[C@@H](C)[C@H]1[C@H](O)C[C@@]2(C)[C@@H]3CC[C@H]4C(C)(C)[C@@H](NC)CC[C@@]45C[C@@]35CC[C@]12C [Cyclovirobuxin D] | 1.23% | 10.2%
CCCCCCCCCCCCCCCCCCCCCCCCCCCCCCO [Triacontanol] | 7.86% | 10.4%
CC[C@@H]1C(=O)OC[C@@H]1Cc1cncn1C [(+)-Pilocarpine hydrochloride] | 1.67% | 16.6%
O=C(O)CCc1ccc(O)cc1 [Phloretic acid] | -0.47% | -5.19%
CC(C)=CCc1cc2c(cc1O)oc(=O)c1c3ccc(O)cc3oc21 [Psoralidin] | 20.7% | 3.47%
CC(C)=CCC[C@](C)(O[C@@H]1O[C@H](CO[C@@H]2O[C@H](CO)[C@@H](O)[C@H](O)[C@H]2O)[C@@H](O)[C@H](O)[C@H]1O)[C@H]1CC[C@]2(C)[C@@H]1[C@H](O)C[C@@H]1[C@@]3(C)CC[C@H](O[C@@H]4O[C@H](CO)[C@@H](O)[C@H](O)[C@H]4O[C@@H]4O[C@H](CO)[C@@H](O)[C@H](O)[C@H]4O)C(C)(C)[C@@H]3CC[C@]12C [Ginsenoside Rb1] | 2.68% | -8.16%
C[C@H](CCC(=O)O)[C@H]1CC[C@H]2[C@@H]3[C@H](O)C[C@@H]4C[C@H](O)CC[C@]4(C)[C@H]3C[C@H](O)[C@]12C [Cholic Acid] | 3.15% | -16.4%
Cc1c(C(=O)NCCO)[n+]([O-])c2ccccc2[n+]1[O-] [Olaquindox] | 8.57% | 3.71%
COc1ccc(-c2oc3c(CC=C(C)C)c(O)cc(O)c3c(=O)c2O)cc1 [Icaritin] | 50.8% | -0.12%
COc1cc(C=O)ccc1O [Vanillin] | -4.65% | 8.89%
CC(=O)Oc1c(C)c(C)c2c(c1C)CCC(C)(CCC[C@H](C)CCC[C@H](C)CCCC(C)C)O2 (stereo not given in full) [Vitamin E Acetate] | 11.3% | 8.31%
Cc1ncc(CO)c(CO)c1O [Pyridoxine hydrochloride] | 4.64% | 14.2%
COc1cc(C[C@H]2C(=O)OC[C@@H]2Cc2ccc(OC)c(OC)c2)ccc1O [Arctigenin] | 44.6% | 7.88%
CN(N=O)C(=O)N[C@@H]1[C@@H](O)[C@H](O)[C@@H](CO)O[C@@H]1O [Streptozocin] | 8.37% | 8.93%
COc1cc2c(cc1O)CC[n+]1cc3c(OC)c(OC)ccc3cc1-2 [Jatrorrhizine] | -19.2% | -22.3%
COc1c(O[C@@H]2O[C@H](C(=O)O)[C@@H](O)[C@H](O)[C@H]2O)cc(O)c2c(=O)cc(-c3ccccc3)oc12 [Wogonoside] | 7.6% | 0.917%
Cc1cc(O)c([C@@H]2c3c(O)cc(O)cc3O[C@H](c3ccc(O)c(O)c3)[C@H]2O)c2c1C[C@@](C)(O)[C@@H](c1ccc(O)c(O)c1)O2 [Grape Seed Extract] | 68.6% | 69.9%
COc1ccc(-c2cc(=O)c3c(O)c(OC)c(O)c(OC)c3o2)cc1 [Lysionotin] | 61.4% | 3.57%
COc1cc(CO)ccc1O [Vanillyl Alcohol] | 1.1% | 12%
C=C[C@H]1[C@H](O[C@@H]2O[C@H](CO)[C@@H](O)[C@H](O)[C@H]2O)OC=C2C(=O)OCC[C@]21O [Swertiamarin] | 20.9% | 4.67%
CC(=O)O[C@H]1[C@H](O[C@H]2CC[C@]34C[C@]35CC[C@]3(C)[C@@H]([C@@]6(C)CC[C@@H](C(C)(C)O)O6)[C@@H](O)C[C@@]3(C)[C@@H]5C[C@H](O[C@@H]3O[C@H](CO)[C@@H](O)[C@H](O)[C@H]3O)[C@H]4C2(C)C)OC[C@@H](O)[C@@H]1O [Astragaloside II] | 33.6% | 29.8%
CC[C@H](C)[C@H](N)C(=O)O [isoleucine] | 7.68% | -1.82%
OC[C@H]1O[C@@H](Oc2cc(O)cc(/C=C/c3ccc(O)cc3)c2)[C@H](O)[C@@H](O)[C@@H]1O [Polydatin] | 18.2% | 5.17%
CC(=O)c1ccc(O)cc1O [2,4-Dihydroxyacetophenone] | 4.37% | 8.14%
C[C@]12C[C@H](O)[C@H]3[C@@H](CCC4=CC(=O)CC[C@@]43C)[C@@H]1CC[C@@H]2C(=O)CO [Corticosterone] | -1.68% | 0.986%

2 entries from above, reformatted:

| SMILES | cell growth inhibition ratio (A2780) | cell growth inhibition ratio [1] |
| --- | --- | --- |
| CC(C)=CCc1cc2c(cc1O)oc(=O)c1c3ccc(O)cc3oc21 [Psoralidin] | 20.7% | 3.47% |
| CC(C)=CCC[C@](C)(O[C@@H]1O[C@H](CO[C@@H]2O[C@H](CO)[C@@H](O)[C@H](O)[C@H]2O)[C@@H](O)[C@H](O)[C@H]1O)[C@H]1CC[C@]2(C)[C@@H]1[C@H](O)C[C@@H]1[C@@]3(C)CC[C@H](O[C@@H]4O[C@H](CO)[C@@H](O)[C@H](O)[C@H]4O[C@@H]4O[C@H](CO)[C@@H](O)[C@H](O)[C@H]4O)C(C)(C)[C@@H]3CC[C@]12C [Ginsenoside Rb1] | 2.68% | -8.16% |

The list goes on:

SMILES | cell growth inhibition ratio (A2780) | cell growth inhibition ratio [1]
C=C(C)[C@@H]1CC[C@]2(C)[C@H](CC=C3[C@@H]4[C@@H](C)[C@H](C)CC[C@]4(C)CC[C@]32C)[C@@]1(C)CCC(=O)O [Roburic acid] | 23.8% | 20.3%
O=C1c2cccc(O)c2C(=O)c2c(O)cc(CO)cc21 [Aloe-emodin] | 41% | 10.4%
CC(C)[C@H](NC(=O)[C@H](CC(=O)O)NC(=O)[C@H](CCCCN)NC(=O)[C@@H](N)CCCN=C(N)N)C(=O)N[C@@H](Cc1ccc(O)cc1)C(=O)O [Thymopentin] | -2.25% | -13.3%
OC[C@H]1O[C@H](O[C@H]2O[C@H](CO)[C@@H](O)[C@H](O)[C@H]2O)[C@H](O)[C@@H](O)[C@@H]1O [D-(+)-Trehalose dihydrate] | 9.26% | 10.3%
COc1ccc(-c2oc3c(CC=C(C)C)c(O)cc(O)c3c(=O)c2O[C@@H]2O[C@@H](C)[C@H](O)[C@@H](O)[C@H]2O)cc1 [Baohuoside I] | 46.1% | 9.4%
O=Cc1ccc(OC2OC(CO)C(O)C(O)C2O)cc1 (stereo not given) [Helicid] | 5.18% | -2.17%
COc1ccc([C@@H]2CC(=O)c3c(O)cc(O)cc3O2)cc1O [Hesperetin] | 1.85% | -17.6%
CC(C)(S)[C@@H](N)C(=O)O [Artamine] | -2.58% | 12.6%
C=C(C)[C@@H]1CC[C@]2(C)CC[C@]3(C)[C@H](CC[C@@H]4[C@@]5(C)CC[C@H](O)C(C)(C)[C@@H]5CC[C@]43C)[C@@H]12 [Lupeol] | -8.23% | 6.17%
CC(C)=CCC[C@](C)(O[C@@H]1O[C@H](CO[C@@H]2O[C@H](CO)[C@@H](O)[C@H](O)[C@H]2O)[C@@H](O)[C@H](O)[C@H]1O)[C@H]1CC[C@]2(C)[C@@H]1[C@H](O)C[C@@H]1[C@@]3(C)CC[C@H](O[C@@H]4O[C@H](CO)[C@@H](O)[C@H](O)[C@H]4O)C(C)(C)[C@@H]3CC[C@]12C [Gypenoside XVII] | 17.7% | -5.85%
Cn1cnc2c1c(=O)[nH]c(=O)n2C [Theobromine] | -0.586% | -31.4%
N[C@@H](Cc1c[nH]c2ccc(O)cc12)C(=O)O [L-5-Hydroxytryptophan] | 10.2% | 1%
C[C@@H]1O[C@@H](OC[C@H]2O[C@@H](Oc3c(-c4ccc(O)c(O)c4)oc4cc(O)cc(O)c4c3=O)[C@H](O)[C@@H](O)[C@@H]2O)[C@H](O)[C@H](O)[C@H]1O [Rutin] | 6.67% | -1.4%
Cc1cc(O)c2c(c1)C(=O)c1cccc(O)c1C2=O [Chrysophanic Acid] | 7.94% | 1.04%
NC[C@H]1O[C@H](O[C@H]2[C@H](O)[C@@H](O[C@H]3O[C@H](CO)[C@@H](O)[C@H](N)[C@H]3O)[C@H](N)C[C@@H]2N)[C@H](O)[C@@H](O)[C@@H]1O [Kanamycin sulfate] | -0.186% | 0.833%
CC(=O)Oc1cccc2c1C(=O)c1c(OC(C)=O)cc(C(=O)O)cc1C2=O [Diacerein] | 4.46% | 0.786%
NC(=O)c1cccnc1 [Nicotinamide] | -3.16% | 1.81%
O=c1c(O)c(-c2ccc(O)cc2O)oc2cc(O)cc(O)c12 [Morin] | 5.81% | -7.29%
Nc1ncnc2c1ncn2[C@@H]1O[C@H](COP(=O)(O)O)[C@@H](O)[C@H]1O [Adenosine 5'-monophosphate] | -0.509% | -5.84%
O=C1c2ccccc2C(=O)c2c1ccc(O)c2O [Alizarin] | 4.07% | 10.7%
COc1cc(-c2oc3cc(O)cc(O)c3c(=O)c2O[C@@H]2O[C@H](CO)[C@@H](O)[C@H](O)[C@H]2O[C@@H]2O[C@@H](C)[C@H](O)[C@@H](O)[C@H]2O)ccc1O | 2.46% | -5.29%
CC(C)CCCC(C)C1CCC2C3CCC4CC(O)CCC4(C)C3CCC12C (stereo not given) [Dihydrocholesterol] | 8.85% | 11.9%
C[C@@H]1O[C@@H](Oc2cc(O)c3c(=O)c(O[C@@H]4O[C@@H](C)[C@H](O)[C@@H](O)[C@H]4O)c(-c4ccc(O)cc4)oc3c2)[C@H](O)[C@H](O)[C@H]1O [Kaempferitrin] | 26.4% | 11%
CC(=O)c1c(O)c(C)c(O)c2c1OC1=CC(=O)C(C(C)=O)C(=O)C12C (stereo not given) [Usnic Acid] | -17.6% | 0.96%
CC1(C)CC[C@]2(C(=O)O)CCC3=C([C@@H](CCl)C[C@@H]4[C@@]5(C)C[C@H](O)[C@H](O)[C@@](C)(C(=O)O)[C@@H]5CC[C@@]34C)[C@@H]2C1 [Senegenin] | 19.6% | 0.279%
COc1cc(O)c2c(c1)C(=O)c1cc(C)cc(O)c1C2=O [Rheochrysidin] | -0.43% | -25%
CC1(C)[C@@H](O)CC[C@]2(C)[C@H]3CC=C4[C@@H]5C[C@@]6(C)C[C@H](OC6=O)[C@]5(C)CC[C@@]4(C)[C@]3(C)CC[C@@H]12 [Wilforlide A] | 4.22% | -21.2%
